Some compounds share one wording; it may come from a single statement.
Assay: Evaluation of C/N (carrier-to-noise ratio) of optical information recording medium
Design: key to Recording/reproducing properties (Pit reading before Xe lamp irradiation): Evaluated as “Excellent” when the 2T recording C/N was 35 dB or more; evaluated as “Good” when the ratio was 30 dB or more and less than 35 dB; evaluated as “Poor” when the ratio was less than 30 dB; Impossible: The recording layer could not sufficiently be formed due to poor solubility, resulting in recording failure
Details: 2T recording C/N; 403-nm laser, NA 0.85, recording power 5 mW

Row | Structure (SMILES) | Recording/reproducing properties (Pit reading before Xe lamp irradiation)
1 | Cn1nc(C(C)(C)C)c(N=Nc2c(C#N)cnn2-c2cc(C(=O)O)cc(C(=O)O)c2)c1N [Compound (A-1)] | Excellent (Evaluated as “Excellent” when the 2T recording C/N was 35 dB or more)
2 | CCCCC(CC)COC(=O)Nc1ccc(-c2nn3nc(C(C)(C)C)c(/N=N/c4c(C#N)cnn4-c4cc(C(=O)O)cc(C(=O)O)c4)c3[nH]2)cc1 (stereo not drawn) [Compound (C), reference compound] | Poor (evaluated as “Poor” when the ratio was less than 30 dB)
3 | Cc1n[nH]c2c(/N=N/c3c(C#N)c(C(C)(C)C)nn3C)c(C(C)(C)C)nn12 [Compound (D), reference compound] | Poor (evaluated as “Poor” when the ratio was less than 30 dB)
4 | CCc1nnc(N=Nc2ccc(N3CCCC3)cc2NS(=O)(=O)C(F)(F)F)s1 [Compound (B), reference compound] | Impossible^(3)
5 | Cc1nn2nc(C(C)(C)C)c(/N=N/c3c(C#N)cnn3-c3cc(C(=O)O)cc(C(=O)O)c3)c2n1C [Compound (A-7)] | Good (evaluated as “Good” when the ratio was 30 dB or more and less than 35 dB)
6 | CCCCn1c(O)c(N=Nc2cc([N+](=O)[O-])ccc2O)c(C)c(C#N)c1=O [Compound (A), reference compound] | Impossible^(3)

Same assay, conditions: disc made in the same manner as Example 1

Row | Structure (SMILES) | use in discs and formation of a recording pit
7 | CCC(CC)C(=O)n1c(N=Nc2c(C(C)(C)C)nn(C)c2N)nc(C#N)c1C#N [(A-51)] | a recording pit could be formed
8 | CC(C)c1nn(CC(=O)O)c2c(N=Nc3nnc(C(C)(C)C)s3)c(C(C)(C)C)nn12 [(A-20)] | a recording pit could be formed
9 | Cc1nn2nc(C(C)(C)C)c(/N=N/c3c(C#N)c(C(C)(C)C)nn3C)c2n1C [(A-13)] | a recording pit could be formed
10 | Cn1c(O)c(N=Nc2c(C#N)c(C(C)(C)C)nn2-c2cc(C(=O)O)cc(C(=O)O)c2)c(=O)n(C)c1=O [(A-35)] | a recording pit could be formed
11 | CC(C)c1nn2nc(C(C)(C)C)c(N=Nc3nnc(C(C)(C)C)s3)c2n1C [(A-49)] | a recording pit could be formed
12 | CN(C)C(=O)n1nc(C(C)(C)C)c(C#N)c1N=Nc1c(C(C)(C)C)nn(C)c1N [(A-2)] | a recording pit could be formed

Source: patent US20080081284A1, “OPTICAL INFORMATION RECORDING MEDIUM” (FUJIFILM Corporation, priority 2006, published 2008)
